Measured values reported in patent publication US20210340217A1, “NOVEL PEPTIDES AND COMBINATION OF PEPTIDES FOR USE IN IMMUNOTHERAPY AGAINST OVARIAN CANCER AND OTHER CANCERS” (Immatics Biotechnologies GmbH, priority 2017, published 2021).

tested on: ovarian cancer tissue samples; assay: Identification of tumor associated peptides presented on the cell surface (HLA immunoprecipitation, LC-MS); presentation across tumor types; set-up: species or system human; settings: tumor types on which the peptide was found presented (HLA immunoprecipitation, LC-MS); abbreviations in table footnote

Substance | Peptide Presentation on tumor types
178 (NELFRDGVNW; listed as Homo sapiens) [compound 178] | AML, BRCA, CCC, CLL, CRC, HCC, HNSCC, MEL, NHL, NSCLC, OSCAR, PACA, PRCA, SCLC, UBC, UEC
31 (LLDEGAMLLY; listed as Homo sapiens) [compound 31] | GBC, HNSCC, NSCLC, SCLC, UBC
485 (VRFPVHAAL; listed as Homo sapiens) [compound 485] | MEL, NSCLC, OSCAR
5 (RLLDFINVL; listed as Homo sapiens) [compound 5] | UEC
541 (RLSPAPLKL; listed as Homo sapiens) [compound 541] | GBM, NSCLC
152 (MGSARVAEL; listed as Homo sapiens) [compound 152] | HNSCC
157 (EAMKRLSYI; listed as Homo sapiens) [compound 157] | CCC, HNSCC, PACA
608 (LTVAEVQKLLGPHVEGLKAE; listed as Homo sapiens) [compound 608] | NSCLC
40 (KPGTSYRVTL; listed as Homo sapiens) [compound 40] | GBM
79 (SYNEHWNYL; listed as Homo sapiens) [compound 79] | BRCA, CCC, CRC, GBC, GC, HCC, HNSCC, MEL, NHL, NSCLC, OSCAR, PACA, PRCA, RCC, SCLC, UBC, UEC
25 (GTSPPSVEK; listed as Homo sapiens) [compound 25] | UEC
545 (RVGPPLLI; listed as Homo sapiens) [compound 545] | BRCA, CRC, NSCLC, OSCAR, UEC
14 (FYFPTPTVL; listed as Homo sapiens) [compound 14] | GBC, NSCLC
438 (SEVDSPNVL; listed as Homo sapiens) [compound 438] | CCC, CLL, CRC, GC, HNSCC, MEL, NHL, NSCLC, SCLC, UBC
8 (YLVTKVVAV; listed as Homo sapiens) [compound 8] | AML, BRCA, CCC, CLL, CRC, GBC, GBM, GC, GEJC, HCC, HNSCC, MEL, NHL, NSCLC, OSCAR, PACA, PRCA, RCC, SCLC, UBC, UEC
176 (AEIEPKADGSW; listed as Homo sapiens) [compound 176] | CCC, NSCLC, PRCA
376 (RPRSPAGQVA; listed as Homo sapiens) [compound 376] | PACA
590 (RVRGEVAPDAKSFVLNLG; listed as Homo sapiens) [compound 590] | NSCLC
33 (SPTFHLTL; listed as Homo sapiens) [compound 33] | NSCLC, PRCA, SCLC, UBC, UEC
680 (GVRGSLLSEADVRALGGLA; listed as Homo sapiens) [compound 680] | NSCLC
19 (KYVKVFHQF; listed as Homo sapiens) [compound 19] | AML, BRCA, CLL, CRC, GBC, GBM, GC, HCC, MEL, NHL, NSCLC, OSCAR, PACA, PRCA, RCC, SCLC, UBC, UEC
528 (TRTGLFLRF; listed as Homo sapiens) [compound 528] | HNSCC, NSCLC, UEC

Substance | Peptide Presentation on tumor types
592 (VRGEVAPDAKSFVLNLG; listed as Homo sapiens) [compound 592] | NSCLC, RCC
409 (REFVLSKGDAGL; listed as Homo sapiens) [compound 409] | GBC, GC, GEJC, HNSCC, NSCLC
20 (RMASPVNVK; listed as Homo sapiens) [compound 20] | CLL
151 (HLLLKVLAF; listed as Homo sapiens) [compound 151] | HNSCC
129 (APRPASSL; listed as Homo sapiens) [compound 129] | BRCA, CRC, NSCLC, OSCAR, SCLC, UEC
275 (STTFPTLTK; listed as Homo sapiens) [compound 275] | UEC
306 (APVIFSHSA; listed as Homo sapiens) [compound 306] | AML, CCC, HCC, MEL, NSCLC, UBC
482 (GRWEKTDLTYR; listed as Homo sapiens) [compound 482] | HNSCC, NSCLC, OSCAR, PACA, SCLC, UEC
78 (SFAPRSAVF; listed as Homo sapiens) [compound 78] | SCLC
124 (LPSDSHFKITF; listed as Homo sapiens) [compound 124] | CRC, HNSCC, NHL, OSCAR, SCLC
215 (SEDGLPEGIHL; listed as Homo sapiens) [compound 215] | CLL, GC, GEJC, HNSCC, NHL, NSCLC, PACA
491 (EAYSSTSSW; listed as Homo sapiens) [compound 491] | GBC, UEC
326 (VPSEIDAAF; listed as Homo sapiens) [compound 326] | BRCA, CCC, CRC, GBC, GC, NSCLC, OSCAR, PACA, RCC, SCLC, UEC
319 (SPAEPSVYATL; listed as Homo sapiens) [compound 319] | BRCA, GC, NSCLC, OSCAR
279 (SVSSETTKIKR; listed as Homo sapiens) [compound 279] | UEC
125 (VPVYILLDEM; listed as Homo sapiens) [compound 125] | CCC, GC, HNSCC, UEC
69 (TTYEGSITV; listed as Homo sapiens) [compound 69] | NSCLC, UEC
71 (YLEDTDRNL; listed as Homo sapiens) [compound 71] | AML, BRCA, CCC, CRC, GBC, GC, GEJC, HCC, HNSCC, MEL, NHL, NSCLC, OSCAR, PACA, PRCA, RCC, SCLC, UBC, UEC
613 (LTVAEVQKLLGPHVEG; listed as Homo sapiens) [compound 613] | NSCLC
7 (ALQAFEFRV; listed as Homo sapiens) [compound 7] | GC, GEJC, HNSCC, NSCLC, PACA, SCLC, UBC
113 (QLDSNRLTY; listed as Homo sapiens) [compound 113] | HCC
634 (DALRGLLPVLGQPIIRS; listed as Homo sapiens) [compound 634] | NSCLC

Substance | Peptide Presentation on tumor types
191 (EEDAALFKAW; listed as Homo sapiens) [compound 191] | AML, BRCA, CCC, CLL, CRC, GC, HCC, HNSCC, MEL, NHL, NSCLC, OSCAR, PACA, PRCA, RCC, SCLC, UBC, UEC
666 (LPLTVAEVQKLLGPHVEG; listed as Homo sapiens) [compound 666] | NSCLC
430 (DEKILYPEF; listed as Homo sapiens) [compound 430] | UEC
332 (FPHSEMTTL; listed as Homo sapiens) [compound 332] | NSCLC, PACA
459 (KVAGERYVY; listed as Homo sapiens) [compound 459] | BRCA, CCC, CRC, GBM, HNSCC, MEL, NSCLC, OSCAR, PACA, PRCA, SCLC, UBC
549 (ARSKLQQGL; listed as Homo sapiens) [compound 549] | MEL
64 (FLDPDRHFL; listed as Homo sapiens) [compound 64] | BRCA, CCC, CRC, GBC, GC, GEJC, HCC, HNSCC, MEL, NSCLC, OSCAR, PACA, PRCA, RCC, SCLC, UBC, UEC
1 (MIPTFTALL; listed as Homo sapiens) [compound 1] | CRC, GBC, NHL, NSCLC, UEC
503 (TVFDKAFTAA; listed as Homo sapiens) [compound 503] | NSCLC
460 (RLSSATANALY; listed as Homo sapiens) [compound 460] | GBC
182 (KEATEAQSL; listed as Homo sapiens) [compound 182] | NSCLC
408 (LEKALQVF; listed as Homo sapiens) [compound 408] | CRC, GC, HNSCC, OSCAR, UEC
150 (MAAVKQAL; listed as Homo sapiens) [compound 150] | CCC, NSCLC, PACA
484 (AWLRSAAA; listed as Homo sapiens) [compound 484] | CCC
53 (MEHPGKLLF; listed as Homo sapiens) [compound 53] | UEC
466 (DLIESGQLRER; listed as Homo sapiens) [compound 466] | UEC
133 (MPNLPSTTSL; listed as Homo sapiens) [compound 133] | UEC
392 (KPIESTLVA; listed as Homo sapiens) [compound 392] | GBM, MEL, NSCLC, UEC
371 (LYVDGFTHW; listed as Homo sapiens) [compound 371] | NSCLC, UEC
72 (YLTDLQVSL; listed as Homo sapiens) [compound 72] | AML, BRCA, CCC, CLL, CRC, GBC, GBM, GC, GEJC, HCC, HNSCC, MEL, NHL, NSCLC, OSCAR, PACA, PRCA, RCC, SCLC, UBC, UEC
629 (GLLPVLGQPIIRSIPQGIVA; listed as Homo sapiens) [compound 629] | NSCLC
36 (APAAWLRSA; listed as Homo sapiens) [compound 36] | BRCA, CCC, CRC, GBC, GC, HCC, HNSCC, NSCLC, OSCAR, PACA, SCLC, UBC, UEC
